Laboratory results as given in PubChem BioAssay AID330 (DTP/NCI, 2004).
The list shows only some results of the screen, not a fair sample: it is rich in T/C values a quarter to a half above the control, in often repeated tests (any T/C) and in doses without a T/C. Further doses and runs are listed elsewhere. T/C: endpoint of the treated group in % of that of the vehicle group. Some entries give survivors of the animals treated and no T/C: the source files T/C as zero there, which appears to mark a toxic dose or a test without result, not a measured value. Some survivor counts are full or nearly so, which does not show that the dose was tolerated: survival well below the control is almost never listed, so the zero probably covers shortened survival too. Survivors were counted at the toxicity check, usually on the fifth day, unless a day is given; later deaths do not show. Schedule codes are those of the source, taken here to give the interval after Q, in days (D) or hours (H), and the number of doses after X. Some doses were run more than once; the values are given in rising order. For survival time, this PubChem deposit counts one and a half times the control or more as active, and values a quarter to a half above the control carry no call in these data; other NCI protocols may use other cut-offs. Marks such as (2×) stand for listed records that agree.

Test system: P388 leukemia ip, CD2F1 mice, survival T/C
Assay: NCI In Vivo Anticancer Drug Screen. Data for tumor model P388 Leukemia (intraperitoneal) in CD2F1 (CDF1) mice
Details: T/C endpoint: median survival time, higher T/C = longer survival
[1] = dose: 100.0 mg/kg/injection, schedule: Q01DX009 (ip), vehicle: saline
[2] = dose: 200.0 mg/kg/injection, schedule: Q01DX009 (ip), vehicle: saline
[3] = dose: 400.0 mg/kg/injection, schedule: Q01DX009 (ip), vehicle: saline
[4] = dose: 200.0 mg/kg/injection, schedule: Q01DX009 (ip), vehicle: Klucel (hydroxypropylcellulose) (HPC)
[5] = dose: 200.0 mg/kg/injection, schedule: Q01DX009 (ip), vehicle: saline with Tween-80
[6] = dose: 25.0 mg/kg/injection, schedule: Q01DX009 (ip), vehicle: saline
[7] = dose: 50.0 mg/kg/injection, schedule: Q01DX009 (ip), vehicle: saline
[8] = dose: 25.0 mg/kg/injection, schedule: Q01DX009 (ip), vehicle: other
[9] = dose: 50.0 mg/kg/injection, schedule: Q01DX005 (ip), vehicle: saline with Tween-80
[10] = dose: 100.0 mg/kg/injection, schedule: Q01DX005 (ip), vehicle: saline with Tween-80
[11] = dose: 50.0 mg/kg/injection, schedule: Q01DX009 (ip), vehicle: saline with Tween-80
[12] = dose: 200.0 mg/kg/injection, schedule: Q01DX005 (ip), vehicle: saline with Tween-80
[13] = dose: 100.0 mg/kg/injection, schedule: Q01DX005 (ip), vehicle: saline
[14] = dose: 200.0 mg/kg/injection, schedule: Q01DX005 (ip), vehicle: saline
[15] = dose: 50.0 mg/kg/injection, schedule: Q01DX009 (ip), vehicle: DMSO
[16] = dose: 100.0 mg/kg/injection, schedule: Q01DX009 (ip), vehicle: DMSO
[17] = dose: 25.0 mg/kg/injection, schedule: Q01DX005 (ip), vehicle: Klucel (hydroxypropylcellulose) (HPC)
[18] = dose: 50.0 mg/kg/injection, schedule: Q01DX005 (ip), vehicle: Klucel (hydroxypropylcellulose) (HPC)
[19] = dose: 100.0 mg/kg/injection, schedule: Q01DX005 (ip), vehicle: Klucel (hydroxypropylcellulose) (HPC)
[20] = dose: 200.0 mg/kg/injection, schedule: Q01DX005 (ip), vehicle: Klucel (hydroxypropylcellulose) (HPC)

CCCCCCCCCCCCCC[N+]1([O-])CCCCC1
survivor count [1]: 6 of 6 | survivor count [2]: 0 of 6

Oc1c(O)c(Br)c(Br)c(Br)c1Br
survivor count [2]: 5 of 6 | survivor count [3]: 0 of 6 | survivor count (dose: 600.0 mg/kg/injection, schedule: Q01DX009 (ip), vehicle: saline): 0 of 6

COC(=O)c1ccc(OCCC(=O)CCl)cc1
survivor count [4]: 0 of 6

Clc1cccc(N=Cc2ccc(C=Nc3cccc(Cl)c3)cc2)c1
survivor count [4]: 6 of 6

C/C(=N\O)C(C)(O)C(C)(C)C (stereo not drawn)
survivor count [5]: 5 of 6

BrP(Cc1ccccc1-c1ccccc1CP(Br)(c1ccccc1)(c1ccccc1)c1ccccc1)(c1ccccc1)(c1ccccc1)c1ccccc1
survivor count (dose: 12.5 mg/kg/injection, schedule: Q01DX009 (ip), vehicle: saline): 1 of 6 | survivor count [6]: 0 of 6 | survivor count [7]: 0 of 6 | survivor count [1]: 0 of 6 | survivor count [2]: 0 of 6

CCCCCCCCCCSCC(N)C(=O)O (stereo not drawn)
survivor count [8]: 6 of 6

CC(=O)C(C(=O)Nc1cccc2ccccc12)C(C)=NCC(C)N=C(C)C(C(C)=O)C(=O)Nc1cccc2ccccc12.[Cu] (stereo not drawn)
survivor count (dose: 50.0 mg/kg/injection, schedule: Q01DX005 (ip), vehicle: saline + Tween-80 + alcohol): 2 of 5 | survivor count (dose: 100.0 mg/kg/injection, schedule: Q01DX005 (ip), vehicle: saline + Tween-80 + alcohol): 0 of 5 | survivor count (dose: 200.0 mg/kg/injection, schedule: Q01DX005 (ip), vehicle: saline + Tween-80 + alcohol): 0 of 5

CC(=O)C1CC[C@@]2(C)C(CC[C@H]3[C@@H]4CCC[C@H]([C@H](C)O)[C@@]4(C)CC[C@@H]32)C1 (stereo partly drawn)
survivor count (dose: 100.0 mg/kg/injection, schedule: Q01DX009 (ip), vehicle: Klucel (hydroxypropylcellulose) (HPC)): 6 of 6

O=C1Nc2ccccc2C1NC(=S)Nc1ccc(Cl)cc1 (stereo not drawn)
survivor count (dose: 400.0 mg/kg/injection, schedule: Q01DX001 (ip), vehicle: saline with Tween-80): 6 of 6

CNc1nc(NC)nc(NC)n1
survivor count [2]: 6 of 6 | survivor count [3]: 0 of 6

O=c1cc(O)cc[nH]1
T/C [6]: 98, 103, 106 % of control (2×) | T/C [7]: 96, 98, 100, 103 % of control | T/C [1]: 100, 101 (2×), 126 % of control | T/C [2]: 99, 100 (2×), 105 % of control

O=C(NCCCCCCCCCNC(=O)C12CC3CC(CC(C3)C1)C2)C12CC3CC(CC(C3)C1)C2
survivor count [9]: 6 of 6 | survivor count [10]: 6 of 6

C=CC(=O)NCNC(=O)C=C
T/C [11]: 140 % of control | T/C (dose: 100.0 mg/kg/injection, schedule: Q04DX003 (ip), vehicle: saline sonified): 131 % of control | survivor count [5]: 6 of 6 | T/C (dose: 200.0 mg/kg/injection, schedule: Q04DX003 (ip), vehicle: saline with Tween-80): 140 % of control | survivor count (dose: 400.0 mg/kg/injection, schedule: Q04DX003 (ip), vehicle: saline sonified): 4 of 6

CN1/C(=C/C=C/C(I)=C/C=C/C2=[N+](C)c3ccccc3C2(C)C)C(C)(C)c2ccccc21
T/C (dose: 12.5 mg/kg/injection, schedule: Q01DX009 (ip), vehicle: saline with Tween-80): 125 % of control | T/C (dose: 25.0 mg/kg/injection, schedule: Q01DX009 (ip), vehicle: saline with Tween-80): 132 % of control | survivor count [11]: 2 of 6

C[S+](C)CCCNC(=O)c1csc(-c2csc(-c3cscn3)n2)n1
survivor count (dose: 25.0 mg/kg/injection, schedule: Q01DX005 (ip), vehicle: saline): 0 of 6

COc1ccccc1NC(=O)Oc1ccc(C(C)(CCC(=O)O)c2ccc(OC(=O)Nc3ccccc3OC)cc2)cc1
T/C [12]: 127 % of control

CC1=CN2C3=NCCN3C3=[N+](C)CCN3C2C=C1 (stereo not drawn)
survivor count [13]: 0 of 6 | survivor count [14]: 0 of 6

CSc1cccc(NC(=O)Oc2c(Cl)cccc2Cl)c1
survivor count (dose: 200.0 mg/kg/injection, schedule: Q01DX009 (ip), vehicle: gum acacia): 6 of 6

COc1ccc2nc3cc(Cl)ccc3c(NN3CCN(CCO)CC3)c2c1
survivor count (dose: 0.09 mg/kg/injection, schedule: Q01DX009 (ip), vehicle: DMSO): 5 of 5 | survivor count (dose: 3.0 mg/kg/injection, schedule: Q01DX009 (ip), vehicle: DMSO): 6 of 6 | survivor count (dose: 6.0 mg/kg/injection, schedule: Q01DX009 (ip), vehicle: DMSO): 3 of 6 | survivor count (dose: 12.5 mg/kg/injection, schedule: Q01DX009 (ip), vehicle: DMSO): 5 of 6 | survivor count (dose: 25.0 mg/kg/injection, schedule: Q01DX009 (ip), vehicle: DMSO): 5 of 6 | survivor count [15]: 5 of 6 | survivor count [16]: 5 of 6 | survivor count (dose: 200.0 mg/kg/injection, schedule: Q01DX009 (ip), vehicle: DMSO): 5 of 6

O=C(CCl)c1ccc([N+](=O)[O-])cc1
survivor count [17]: 5 of 6 | survivor count [18]: 0 of 6 | survivor count [19]: 0 of 6 | survivor count (dose: 100.0 mg/kg/injection, schedule: Q01DX009 (ip), vehicle: saline with Tween-80): 3 of 6 | survivor count [5]: 0 of 6

O=C(Nc1ccc(Cl)cc1)Nc1nnc2nc(C3(c4nc5nnc(NC(=O)Nc6ccc(Cl)cc6)n5[nH]c4=O)CCCC3=O)c(=O)[nH]n12
survivor count (dose: 120.0 mg/kg/injection, schedule: Q01DX005 (ip), vehicle: saline with Tween-80): 6 of 6

CCCCCCCC[N+](C)([O-])CCCCCC[N+](C)([O-])CCCCCCCC (stereo not drawn)
survivor count [2]: 1 of 6

CCCCN(CCCC)c1ccc(C(=N)c2ccc(N(CCCC)CCCC)cc2)cc1
survivor count [18]: 1 of 5 | survivor count [19]: 0 of 5 | survivor count [20]: 0 of 5

CCC(C)C(F)C(=O)O (stereo not drawn)
survivor count [12]: 3 of 6

CCc1ccc2c(-c3ccccc3)c3ccccc3c(-c3ccccc3)c2c1
survivor count [9]: 5 of 5 | survivor count [10]: 5 of 5

COc1ccc([N+](=O)[O-])c(OC(C)=O)c1OC
survivor count [8]: 6 of 6

CCN(CC)CCSC(=O)C(O)(c1ccccc1)c1ccccc1
survivor count (dose: 10.0 mg/kg/injection, schedule: Q01DX009 (ip), vehicle: saline): 6 of 6 | survivor count [1]: 0 of 6 and 3 of 6 | survivor count [2]: 0 of 6 | survivor count [3]: 0 of 6

CC(C)(Oc1ccc(Cl)cc1)C(=O)OCCCC(=O)NC1CC(C)(C)N(O)C(C)(C)C1
survivor count (dose: 100.0 mg/kg/injection, schedule: Q01DX001 (ip), vehicle: saline): 6 of 6

CC1(C)[C@H]2Cc3c(ccc4c3C(=O)OC4=O)[C@@H]1C2
survivor count (dose: 200.0 mg/kg/injection, schedule: Q01DX005 (ip), vehicle: Klucel + Tween-80): 1 of 6

CCN=C(Nc1cccc(C2=NCCN2)c1)c1ccc(C(=NCC)Nc2cccc(C3=NCCN3)c2)cc1
survivor count [17]: 0 of 6 | survivor count [18]: 0 of 6 | survivor count [19]: 0 of 6 | survivor count [20]: 0 of 6

COC1=CC(=O)c2ncccc2C1=O
survivor count [15]: 1 of 6 | survivor count [16]: 0 of 6

C=C[CH2][Sn]([CH2]C)([CH2]C)[CH2]C=C
T/C (dose: 50.0 mg/kg/injection, schedule: Q01DX005 (ip), vehicle: saline, evaluated on day 20): 136 % of control | T/C (dose: 50.0 mg/kg/injection, schedule: Q01DX005 (ip), vehicle: saline, evaluated on day 30): 125 % of control | survivor count [13]: 1 of 6 | survivor count [14]: 0 of 6
